Source: publication PMC12398621
Results are given in words; binding and its absence hold for the method and conditions named. Binding seen in cells or lysates may run through a third protein.

Amino acid sequences for entries named in this document (tags omitted).
UniProt O00571: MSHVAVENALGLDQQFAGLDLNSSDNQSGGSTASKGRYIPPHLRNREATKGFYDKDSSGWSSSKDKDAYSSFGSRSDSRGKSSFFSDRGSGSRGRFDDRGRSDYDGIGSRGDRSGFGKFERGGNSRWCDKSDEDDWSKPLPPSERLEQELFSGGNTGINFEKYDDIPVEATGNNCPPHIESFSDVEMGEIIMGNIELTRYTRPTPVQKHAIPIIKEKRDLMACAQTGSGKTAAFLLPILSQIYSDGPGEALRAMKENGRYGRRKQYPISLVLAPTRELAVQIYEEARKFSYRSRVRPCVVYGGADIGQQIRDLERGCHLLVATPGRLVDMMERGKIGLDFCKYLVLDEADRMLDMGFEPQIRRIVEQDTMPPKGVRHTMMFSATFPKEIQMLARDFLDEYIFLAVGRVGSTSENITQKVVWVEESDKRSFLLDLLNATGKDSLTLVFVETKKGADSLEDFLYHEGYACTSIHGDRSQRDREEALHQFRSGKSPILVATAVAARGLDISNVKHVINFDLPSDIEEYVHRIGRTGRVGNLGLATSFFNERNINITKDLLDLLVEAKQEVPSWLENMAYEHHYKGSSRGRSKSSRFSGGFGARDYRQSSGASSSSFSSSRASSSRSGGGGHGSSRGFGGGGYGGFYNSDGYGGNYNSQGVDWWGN

Molecular target: DDX3X (UniProt O00571)
Test: co-IP; co-immunoprecipitation in lung cancer cells; which protein was precipitated and the conditions are not told in the text shown

B1: JUND (protein, UniProt P17535 1-347)
chain: METPFYGDEALSGLGGGASGSGGSFASPGRLFPGAPPTAAAGSMMKKDALTLSLSEQVAAALKPAAAPPPTPLRADGAPSAAPPDGLLASPDLGLLKLASPELERLIIQSNGLVTTTPTSSQFLYPKVAASEEQEFAEGFVKALEDLHKQNQLGAGAAAAAAAAAAGGPSGTATGSAPPGELAPAAAAPEAPVYANLSSYAGGAGGAGGAATVAFAAEPVPFPPPPPPGALGPPRLAALKDEPQTVPDVPSFGESPPLSPIDMDTQERIKAERKRLRNRIAASKCRKRKLERISRLEEKVKTLKSQNTELASTASLLREQVAQLKQKVLSHVNSGCQLLPQHQVPAY
- binding: no binding
